PubChem BioAssay AID686943 – Drosophila RNAi Screening Center – 2013
The deposit covers about 23,000 reagents; this is an unselected part of those that have a named target and a result. 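Extra replicates exist only for a retested subset of genes; insulin dose and duration not given; both raised and lowered dpERK matter.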 Names joined by + are all predicted targets of the reagent. The record does not give: the amount of reagent, the time to read-out.

- Purpose: 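Fly genes whose loss alters ERK activation after insulin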 (primary screen)
- System: Drosophila S2R+ haemocyte-like cells expressing YFP-tagged ERK (Rolled)
- Reagent: long dsRNA against Drosophila genes
- Challenge: insulin stimulation versus unstimulated cells; dose and duration not given
- Read-out: 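Per-plate z-scores of phospho-ERK immunostaining normalised to YFP-tagged ERK, measured with and without insulin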
- Scale: replicate 1, z-score of dpERK with insulin and replicate 2, z-score of dpERK with insulin: higher = more active ERK per ERK-YFP after insulin; replicate 1, z-score of dpERK under basal conditions: higher = more basal active ERK per ERK-YFP; replicate 1, z-score of ERK-YFP with insulin: higher = more YFP-tagged ERK signal

The opening 3 records as a preview:
| gene knocked down | amplicon | replicate 1, z-score of dpERK with insulin | replicate 2, z-score of dpERK with insulin | replicate 1, z-score of dpERK under basal conditions | replicate 1, z-score of ERK-YFP with insulin |
| --- | --- | --- | --- | --- | --- |
| dare + CG30033 | DRSC22908 | 0 | 0.76 | 0.18 | 0.37 |
| BRWD3 | DRSC15369 | -0.32 | 0.5 | 0.2 | 0.32 |
| BRWD3 | DRSC16032 | -0.52 | -2.42 | -2.14 | -1.02 |

The listing, from the first entry:
| gene knocked down | amplicon | replicate 1, z-score of dpERK with insulin | replicate 2, z-score of dpERK with insulin | replicate 1, z-score of dpERK under basal conditions | replicate 1, z-score of ERK-YFP with insulin |
| --- | --- | --- | --- | --- | --- |
| dare + CG30033 | DRSC22908 | 0 | 0.76 | 0.18 | 0.37 |
| BRWD3 | DRSC15369 | -0.32 | 0.5 | 0.2 | 0.32 |
| BRWD3 | DRSC16032 | -0.52 | -2.42 | -2.14 | -1.02 |
| CG4452 | DRSC10422 | 0.36 | 0.24 | 0.62 | 0.25 |
| CG13544 | DRSC04186 | 0.45 | -0.28 | -0.65 | -0.3 |
| CG32450 | DRSC11546 | -0.38 | 0.03 | 0.49 | 0.34 |
| Nplp2 (Neuropeptide-like precursor 2) | DRSC09824 | 0.21 | 0.6 | -0.32 | 0.34 |
| CG4301 | DRSC19886 | -0.75 | -0.36 | 1.19 | 1.21 |
| Spn27A (Serpin 27A) | DRSC03608 | 0.54 | 1.1 | 0.16 | 0.08 |
| alpha4GT1 (alpha1,4-galactosyltransferase 1) | DRSC00488 | -0.15 | 0.09 | 0.17 | -0.12 |
| CG7848 | DRSC07050 | -0.52 | 0.29 | 0.45 | 0.61 |
| CR43087 + CR43086 + CG34002 | DRSC11953 | 1.62 | 0.68 | 0.13 | -0.31 |
| CG13096 | DRSC02198 | 0.04 | 0.38 | -0.78 | -0.84 |
| RpS14b (Ribosomal protein S14b) | DRSC18711 | 2.05 | -1.53 | 1.25 | -4.24 |
| ast (asteroid) | DRSC00803 | 0.08 | 0.32 | -1.43 | -0.42 |
| GstZ2 (Glutathione S transferase Z2) | DRSC16479 | 0.33 | 0.44 | 0.07 | -0.38 |
| CG14005 | DRSC02337 | -0.01 | 0.54 | 0.63 | 0.35 |
| Rrp6 | DRSC16223 | 0.15 | 0.94 | 6.58 | -4.59 |
| Traf6 (TNF-receptor-associated factor 6) | DRSC18725 | 0.91 | 0.45 | -0.02 | 0.28 |
| mio (missing oocyte) | DRSC00692 | -1.28 | -0.22 | 0.23 | -0.88 |
| mio (missing oocyte) | DRSC22056 | 0.93 | -1.14 | 0.9 | -1.5 |
| CG32801 | DRSC17964 | 0.57 | -0.58 | -0.16 | -0.22 |
| Sf3a2 (Splicing factor 3a subunit 2) | DRSC09801 | 1.33 | 1.3 | 0.46 | -1.87 |
| Eaat2 (Excitatory amino acid transporter 2) | DRSC00032 | -0.31 | 0.9 | -0.79 | 0.24 |
| Eaat2 (Excitatory amino acid transporter 2) | DRSC00749 | -0.24 | 0.03 | -0.25 | 0 |
| Acp26Ab (Accessory gland protein 26Ab) | DRSC01856 | 0.11 | 0.06 | -0.36 | 0.02 |
| CG17739 | DRSC06689 | 0.68 | 0.24 | 0.37 | -0.32 |
| CG14759 | DRSC06494 | 0.34 | 0.16 | -0.05 | -0.1 |
| PK1-R (Pyrokinin 1 receptor) | DRSC16577 | 0.82 | 0.62 | 0.86 | -0.31 |
| CG5721 | DRSC06945 | -0.04 | -0.11 | 0.1 | 0.12 |
| Zwilch | DRSC15376 | -0.12 | -0.12 | -0.43 | 0.42 |
| Acp63F (Accessory gland protein 63F) | DRSC08137 | 0.14 | 0.39 | 0.08 | 0.32 |
| CG11811 | DRSC09862 | 0.13 | 0.2 | -2.03 | 0.34 |
| TkR86C (Tachykinin-like receptor at 86C) | DRSC16880 | -0.42 | -0.55 | -0.18 | 0.98 |
| WDR79 (WD repeat domain 79) | DRSC03159 | 0.36 | -0.12 | -0.09 | 0.88 |
| CG11357 | DRSC08183 | 1.31 | -0.44 | -0.63 | -0.78 |
| CG10336 | DRSC02037 | -0.69 | 0.48 | 0.72 | 0.68 |
| CG6472 | DRSC06989 | 0.15 | -0.61 | 1.17 | 0.57 |
| CG15629 | DRSC00464 | 1.06 | 0.13 | -0.02 | 0.74 |
| Plp (Pericentrin-like protein) | DRSC10006 | 0.55 | 1.2 | -0.37 | 0.15 |
| Plp (Pericentrin-like protein) | DRSC10333 | -0.13 | -0.23 | 0.3 | 0.32 |
| Plp (Pericentrin-like protein) | DRSC10700 | 0.26 | -0.57 | 0.22 | 0.07 |
| CG13288 | DRSC09962 | 0.94 | -0.89 | -0.01 | 0 |
| CG7950 + Rpp14a | DRSC16353 | 2.06 | -1.04 | 3.33 | -2.43 |
| CG11583 | DRSC08202 | -0.1 | 0.13 | -1.12 | -0.54 |
| mira (miranda) | DRSC16998 | -0.14 | 0.34 | -1.11 | -0.43 |
| Or30a (Odorant receptor 30a) | DRSC03385 | -0.37 | 0.19 | -1.09 | 0.78 |
| Pex11ab (Peroxin 11a/b) | DRSC07145 | 0.28 | 0.39 | 0.29 | -0.06 |
| Cyp309a1 (Cytochrome P450 309a1) | DRSC00747 | 0.46 | 0.29 | -0.39 | -0.09 |
| Atg101 (Autophagy-related 101) | DRSC20020 | -0.09 | 0.39 | -1.05 | 0.32 |
| CG42240 | DRSC18097 | 0.82 | 0.66 | 0.39 | 0.1 |
| CG17199 | DRSC15192 | -0.14 | 0.27 | 0.5 | -0.12 |
| CG13771 | DRSC02277 | -0.71 | -0.17 | -0.14 | 2.06 |
| Vsx2 (Visual system homeobox 2) | DRSC17397 | -0.8 | -2.19 | -2.47 | 1.37 |
| Vsx2 (Visual system homeobox 2) | DRSC18087 | -1.38 | -2.19 | -0.88 | 1.74 |
| Vsx2 (Visual system homeobox 2) | DRSC18088 | 0.12 | 0.21 | -0.7 | 0.42 |
| Vsx2 (Visual system homeobox 2) | DRSC18089 | -4.02 | 0.84 | 0.79 | -2.79 |
